# Data reported in PubChem BioAssay AID493014 (National Center for Advancing Translational Sciences (NCATS), 2011).
# The whole screen tested about 340,000 compounds, of which about 170 (0.05%) were called active. This list was built around the results that the source calls inconclusive (neither active nor inactive); the mix of calls is not that of the screen. Calls come from the whole dose curve; as a rule, active = well fitted inhibition curve with a large enough effect in the signal ratio, with a control signal flat (not every such curve was filed as active); inconclusive = small, poorly fitted or top-dose-only effect, or effect the other way, or a change in a side signal; inactive = flat fitted curve, though single readings scatter; the % refers to the signal ratio. Potencies of inconclusive entries are doubtful fits and often do not repeat.
# Test: qHTS Assay to Find Inhibitors of Chronic Active B-Cell Receptor Signaling;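 for activity change, negative = inhibition: plate controls were basal doxycycline-induced cells for no effect and cells given 10 µM MG132 for full effect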
# Conditions: ABC-DLBCL IkBa-CBG/CBR reporter, luminescence ratio (green luciferase fused to IkBa over red control in TMD8 lymphoma cells), 4 h; activity change, negative = inhibition: at 46.1 µM (top of the series) unless noted
# Procedure, shortened: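 Compounds up to 46 uM were incubated four hours with TMD8 cells whose green CBG68 luciferase is fused to IkappaBalpha; red CBR luminescence normalised the signal, and concentration-effect curves were fitted to fusion, red and ratio data.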
# Potency is the fitted concentration of half-maximal effect.
Compound,"activity change, negative = inhibition",Potency
Fc1cccc(NC(=S)Nc2cccnc2)c1,inactive: -0.47%,
COc1cccc(-c2cc3nc4c(c(N5CCC6(CC5)OCCO6)n3n2)CCCC4)c1,,"inconclusive: 18.4 µM [falling, single point]"
CCOc1ccc(NC(=O)c2ccc3c(c2)OCCO3)cc1S(=O)(=O)N(CC)CC,inconclusive: 9.64%,
Cc1cc(C)c(S(=O)(=O)NCCc2sc3nc(-c4ccc(F)cc4)nn3c2C)c(C)c1,,"inconclusive: 8.91 µM [falling, partial curve, poor fit]"
Cc1ccc(S(=O)(=O)NC(C)C(=O)OCC(=O)N(C)c2ccccc2)cc1 (stereo not drawn),inconclusive: 3.16%,
COc1ccc(NC(=O)CCSc2nnnn2C)cc1,inactive: 7.64%,
C=CCc1c(C)nc(SCc2nc3ccccc3c(=O)[nH]2)[nH]c1=O,inconclusive: -0.01%,
CC(C)(C)C1CCc2c(sc3nc(SCC(N)=O)nc(N)c23)C1 (stereo not drawn),,"inconclusive: 4.11 µM [falling, partial curve]"
Nc1ccc2c(c1)C(=O)N(CCCCCC(=O)O)C2,inconclusive: 3.46%,
CC(C)(C)CN1CCN(Cc2cc3ccccc3[nH]2)CC1CCO (stereo not drawn),inactive: 2.01%,
COc1ccc(NC(=O)CCSc2cc(C)c3ccccc3n2)cc1,inconclusive: -1.69%,
Cc1ccc(-n2ncc3c(NCc4ccco4)ncnc32)c(C)c1,inconclusive: -6.47%,
CCOc1ccc(-n2c(C)nc3cc(C(=O)NC4CCCC4)ccc32)cc1,inconclusive: 3.83%,
Cc1ccccc1CS(=O)(=O)CCC(=O)N1CCN(c2ccc(N3CCOCC3)nn2)CC1,inconclusive: -1.11%,
COc1ccc(-c2occ(C(=O)O)c2C(=O)O)cc1,,"inconclusive: 20.6 µM [falling, partial curve, poor fit]"
Cn1cc(S(=O)(=O)N2CCCC2)cc1C(=O)N1CCN(c2ccccc2)CC1,inconclusive: 1.83%,
CCOc1ccc(S(=O)(=O)N2CCOCC2)cc1NC(=O)CSCc1ccc(C)cc1,inactive: -0.573%,
Cc1nnc(N/N=C/c2ccc([N+](=O)[O-])cc2)n1N,inconclusive: 5.95%,
CCC(CO)n1c(SCc2cc([N+](=O)[O-])cc3c2OCOC3)nc2ccccc2c1=O (stereo not drawn),,"inconclusive: 29.1 µM [falling, single point]"
C(=C/c1nccc2c1[nH]c1ccccc12)/c1ccc2c(c1)OCO2,inconclusive: 20%,
Cc1ccc(-c2c(C(=O)N/N=C/c3cccc(Cl)c3)nnn2-c2nonc2N)cc1,inconclusive: 6.13%,
CCC1(c2ccccc2)NC(=O)N(CC(=O)NCc2ccccc2OC)C1=O (stereo not drawn),inactive: -0.478%,
O=C(NCCNC(=O)c1cc(OCC(F)(F)F)ccc1OCC(F)(F)F)Nc1cccc(C(F)(F)F)c1,inconclusive: -0.264%,
COc1ccc(/[N+]([O-])=C/c2ccco2)cc1,inactive: 0.783%,
O=C(CNC(=S)N(CCCN1CCOCC1)Cc1cccs1)N1CCCCCC1,inconclusive: 13.7%,
Cc1ccc(NC(=S)NCCN2CCOCC2)cc1C,inactive: 0.108%,
C=CCn1c(SCC(=O)Nc2cccc(C(=O)OC)c2)nnc1C(C)NC(=O)c1cccs1 (stereo not drawn),,"inconclusive: 14.6 µM [falling, single point]"

Compound,"activity change, negative = inhibition",Potency
Cc1ccc(-c2cc(C(=O)N3CCN(c4ccccc4O)CC3)c3ccccc3n2)cc1,inactive: 20.9%,
CCN(CC)C(=O)C1CCCN(C(=S)Nc2cccc3ccccc23)C1 (stereo not drawn),inconclusive: -25.1%,
COc1ccc(NC(=O)c2cnn(-c3ccc(C)c(C)c3)c2C2CCNCC2)cc1OC,inactive: -8.17%,
CN(Cc1ccccc1)C(=O)C1CCN(S(=O)(=O)c2ccc(-n3cnnn3)cc2)CC1,inconclusive: -34.1%,
CC(Oc1ccc(Cl)cc1)C(=O)Nc1cccc(S(=O)(=O)N2CCOCC2)c1 (stereo not drawn),inconclusive: 4.68%,
COc1ccc(N2CCN(C(=O)c3cc4ccccc4o3)CC2)cc1,inconclusive: 0.102%,
Nc1nc2ccccc2n1C(=O)c1cccs1,,"inconclusive: 4.47 µM [falling, full curve]"
O=C(NN=C1CCCCCC1)c1cccs1,,"inconclusive: 35.5 µM [falling, single point]"
N#CCCCN1C(=O)C(=C(C#N)C#N)c2ccccc21,,"inconclusive: 35.5 µM [falling, single point]"
Nc1nc(-c2cccnc2)nn1C(=O)c1ccccc1Cl,,"inconclusive: 11.2 µM [falling, partial curve, poor fit]"
O=c1oc(Nc2ccc(F)cc2)nc2ccccc12,,"inconclusive: 4.47 µM [falling, partial curve]"
O=S(=O)(NCC(c1cccs1)S(=O)(=O)c1ccccc1)c1ccccc1 (stereo not drawn),inconclusive: -6.28%,
Nc1scc(-c2ccncc2)c1Cl,,"inconclusive: 13 µM [rising, single point]"
CC(OC(=O)c1cc2sccc2n1C)C(=O)NCc1ccc(F)cc1 (stereo not drawn),inconclusive: 5.44%,
CCN(C(C)=O)c1nnc(CSc2nc3ccccc3s2)s1,inactive: -1.65%,
CN1CCN(c2ccc(S(=O)(=O)N3CCOCC3)cc2)CC1,inactive: -20.6%,
CC(C)(C)c1cc(NC(=O)CSc2nnc(NCc3ccccc3)s2)n(-c2ccccc2)n1,inconclusive: -12.7%,
CN(C)CCC(=O)c1ccc(F)cc1,inactive: 5.17%,
CC1CCc2c(sc(NC(=S)NC(=O)c3ccccc3)c2C#N)C1 (stereo not drawn),inconclusive: 11.6%,
CCCOc1c(OC)cccc1C1CC(=O)Nc2cc3c(cc21)OCCO3 (stereo not drawn),,"inconclusive: 35.5 µM [falling, single point]"
CCO[C@H]1OC(C(=O)NCc2nc3ccccc3[nH]2)=C[C@@H](c2ccc(C(F)(F)F)cc2)[C@@H]1CCCO,inconclusive: -21.9%,
COc1ccc(OC)c(C(=O)N2CCC(n3nccc3NC(=O)CC(C)C)CC2)c1,inconclusive: 1.96%,
Cc1ccc2nc(-c3cccnc3)c(NC3CCCCC3)n2c1,inconclusive: -5.25%,
Cc1ccccc1-c1nnc(CN2CCC(C)CC2)o1,inactive: -0.0783%,
Cc1ccc(N2CN(CCc3ccccc3)CNC2=S)cc1,inactive: 0.637%,
O=C(CCc1ccccc1)Nc1cccc(NC(=O)CCc2ccccc2)c1,,"inconclusive: 1.46 µM [falling, full curve]"

# Arranged by molar mass (smallest number first): some entries from above.
Compound,"activity change, negative = inhibition",Potency
CN(C)CCC(=O)c1ccc(F)cc1,inactive: 5.17%,
Nc1scc(-c2ccncc2)c1Cl,,"inconclusive: 13 µM [rising, single point]"
Nc1nc2ccccc2n1C(=O)c1cccs1,,"inconclusive: 4.47 µM [falling, full curve]"
O=c1oc(Nc2ccc(F)cc2)nc2ccccc12,,"inconclusive: 4.47 µM [falling, partial curve]"
Nc1nc(-c2cccnc2)nn1C(=O)c1ccccc1Cl,,"inconclusive: 11.2 µM [falling, partial curve, poor fit]"
Cc1ccc2nc(-c3cccnc3)c(NC3CCCCC3)n2c1,inconclusive: -5.25%,
Cc1ccc(N2CN(CCc3ccccc3)CNC2=S)cc1,inactive: 0.637%,
CCN(C(C)=O)c1nnc(CSc2nc3ccccc3s2)s1,inactive: -1.65%,
CC(OC(=O)c1cc2sccc2n1C)C(=O)NCc1ccc(F)cc1 (stereo not drawn),inconclusive: 5.44%,
CCN(CC)C(=O)C1CCCN(C(=S)Nc2cccc3ccccc23)C1 (stereo not drawn),inconclusive: -25.1%,
O=S(=O)(NCC(c1cccs1)S(=O)(=O)c1ccccc1)c1ccccc1 (stereo not drawn),inconclusive: -6.28%,
Cc1ccc(-c2cc(C(=O)N3CCN(c4ccccc4O)CC3)c3ccccc3n2)cc1,inactive: 20.9%,
CC(Oc1ccc(Cl)cc1)C(=O)Nc1cccc(S(=O)(=O)N2CCOCC2)c1 (stereo not drawn),inconclusive: 4.68%,
COc1ccc(NC(=O)c2cnn(-c3ccc(C)c(C)c3)c2C2CCNCC2)cc1OC,inactive: -8.17%,
CN(Cc1ccccc1)C(=O)C1CCN(S(=O)(=O)c2ccc(-n3cnnn3)cc2)CC1,inconclusive: -34.1%,
CCO[C@H]1OC(C(=O)NCc2nc3ccccc3[nH]2)=C[C@@H](c2ccc(C(F)(F)F)cc2)[C@@H]1CCCO,inconclusive: -21.9%,
